Test results reported in US11090319B2, “Therapeutic uses of pharmaceutical compositions comprising cyclic boronic acid ester derivatives” (Melinta Subsidiary Corp., priority 2010, dated 2021).
Read-outs that look alike come from different tables or passages of the source. At least one read-out could not be matched to a standard name with certainty.

How the values were obtained:
EC1007 KPC-3 = format: cell-based, Escherichia coli
EC1010 CMY-6 = assay: Tigemonam potentiation assay (MPC@4), class C and D; format: cell-based, Escherichia coli
Procedure: (§1) Selected β-lactamase inhibitors were also tested for their ability to potentiate the monobactam tigemonam.

PAM2035 = assay: as above; format: cell-based, Pseudomonas aeruginosa
Procedure: as §1

KP1007 OXA-10 = format: cell-based, Klebsiella pneumoniae
Procedure: as §1

KPX1001 OXA-2 = format: cell-based
Procedure: as §1

[1] = test system: strains expressing class A ESBLs; format: cell-based
[2] = test system: strains expressing class C and D enzymes; format: cell-based

## O=C(O)CC1CCC[C@H](NC(=O)Cc2cccs2)B(O)O1 (stereo partly drawn) [Compound 63, 2-((3R)-2-hydroxy-3-(2-(thiophen-2-yl)acetamido)-1,2-oxaborepan-7-yl)acetic acid]
EC1007 KPC-3
  AZT MPC4 KPC-3 EC1007: Y (key: X: MPC@4 of less than 5 μg/mL; Y: MPC@4 of 5 μg/mL to 20 μg/mL; Z: MPC@4 of greater than 20 μg/mL)
EC1010 CMY-6
  MPC4 CMY-6, EC1010: X (key: X: MPC@4 of less than 2 μg/mL; Y: MPC@4 of 2 μg/mL to 10 μg/mL; Z: MPC@4 of greater than 10 μg/mL)
PAM2035
  MPC4 PAM2035: Y (key: X: MPC@4 of less than 2 μg/mL; Y: MPC@4 of 2 μg/mL to 10 μg/mL; Z: MPC@4 of greater than 10 μg/mL)
KP1007 OXA-10
  MPC4 OXA-10, KP1007: Y (key: X: MPC@4 of less than 2 μg/mL; Y: MPC@4 of 2 μg/mL to 10 μg/mL; Z: MPC@4 of greater than 10 μg/mL)
KPX1001 OXA-2
  MPC4 OXA-2, KPX1001: X (key: X: MPC@4 of less than 2 μg/mL; Y: MPC@4 of 2 μg/mL to 10 μg/mL; Z: MPC@4 of greater than 10 μg/mL)
[1]
  AZT MPC4 CTX-M-14 KP1005: Y (key: X: MPC@4 of less than 5 μg/mL; Y: MPC@4 of 5 μg/mL to 20 μg/mL; Z: MPC@4 of greater than 20 μg/mL)
  AZT MPC4 CTX-M-15 KP1009: Y (key: X: MPC@4 of less than 5 μg/mL; Y: MPC@4 of 5 μg/mL to 20 μg/mL; Z: MPC@4 of greater than 20 μg/mL)
  AZT MPC4 SHV-5 ec308: Y (key: X: MPC@4 of less than 5 μg/mL; Y: MPC@4 of 5 μg/mL to 20 μg/mL; Z: MPC@4 of greater than 20 μg/mL)
  AZT MPC4 SHV-12 KP1010: X (key: X: MPC@4 of less than 5 μg/mL; Y: MPC@4 of 5 μg/mL to 20 μg/mL; Z: MPC@4 of greater than 20 μg/mL)
  AZT MPC4 SHV-18 KP1012: X (key: X: MPC@4 of less than 5 μg/mL; Y: MPC@4 of 5 μg/mL to 20 μg/mL; Z: MPC@4 of greater than 20 μg/mL)
  AZT MPC4 TEM-10 EC1009: Y (key: X: MPC@4 of less than 5 μg/mL; Y: MPC@4 of 5 μg/mL to 20 μg/mL; Z: MPC@4 of greater than 20 μg/mL)
  AZT MPC4 TEM-10 ec302: Z (key: X: MPC@4 of less than 5 μg/mL; Y: MPC@4 of 5 μg/mL to 20 μg/mL; Z: MPC@4 of greater than 20 μg/mL)
  AZT MPC4 TEM-26 ec304: Y (key: X: MPC@4 of less than 5 μg/mL; Y: MPC@4 of 5 μg/mL to 20 μg/mL; Z: MPC@4 of greater than 20 μg/mL)
[2]
  AZT MPC@4 CMY-6 EC1010: Y (key: X: MPC@4 of less than 5 μg/mL; Y: MPC@4 of 5 μg/mL to 20 μg/mL; Z: MPC@4 of greater than 20 μg/mL)
  AZT MPC@4 ECL1002: Y (key: X: MPC@4 of less than 5 μg/mL; Y: MPC@4 of 5 μg/mL to 20 μg/mL; Z: MPC@4 of greater than 20 μg/mL)
  AZT MPC@4 OXA-2, KPX1001: Y (key: X: MPC@4 of less than 5 μg/mL; Y: MPC@4 of 5 μg/mL to 20 μg/mL; Z: MPC@4 of greater than 20 μg/mL)
  AZT MPC@4 OXA-10, qnrB4 KP1007: Y (key: X: MPC@4 of less than 5 μg/mL; Y: MPC@4 of 5 μg/mL to 20 μg/mL; Z: MPC@4 of greater than 20 μg/mL)
  AZT MPC@4 PAM2035: Y (key: X: MPC@4 of less than 5 μg/mL; Y: MPC@4 of 5 μg/mL to 20 μg/mL; Z: MPC@4 of greater than 20 μg/mL)

## O=C(O)CC1C=CC[C@H](NC(=O)Cc2cccs2)B(O)O1 (stereo partly drawn) [Compound 64, 2-((3R)-2-hydroxy-3-(2-(thiophen-2-yl)acetamido)-2,3,4,7-tetrahydro-1,2-oxaborepin-7-yl)acetic acid]
EC1007 KPC-3
  AZT MPC4 KPC-3 EC1007: Y (key: X: MPC@4 of less than 5 μg/mL; Y: MPC@4 of 5 μg/mL to 20 μg/mL; Z: MPC@4 of greater than 20 μg/mL)
EC1010 CMY-6; tigemonam at 4 μg/mL
  MPC4 CMY-6, EC1010: X (MPC@4 of less than 2 μg/mL)
PAM2035; tigemonam at 4 μg/mL
  MPC4 PAM2035: Y (MPC@4 of 2 μg/mL to 10 μg/mL)
KP1007 OXA-10; tigemonam at 4 μg/mL
  MPC4 OXA-10, KP1007: X (MPC@4 of less than 2 μg/mL)
KPX1001 OXA-2; tigemonam at 4 μg/mL
  MPC4 OXA-2, KPX1001: Y (MPC@4 of 2 μg/mL to 10 μg/mL)
[1]
  AZT MPC4 CTX-M-14 KP1005: Y (key: X: MPC@4 of less than 5 μg/mL; Y: MPC@4 of 5 μg/mL to 20 μg/mL; Z: MPC@4 of greater than 20 μg/mL)
  AZT MPC4 CTX-M-15 KP1009: Y (key: X: MPC@4 of less than 5 μg/mL; Y: MPC@4 of 5 μg/mL to 20 μg/mL; Z: MPC@4 of greater than 20 μg/mL)
  AZT MPC4 SHV-5 ec308: X (key: X: MPC@4 of less than 5 μg/mL; Y: MPC@4 of 5 μg/mL to 20 μg/mL; Z: MPC@4 of greater than 20 μg/mL)
  AZT MPC4 SHV-12 KP1010: X (key: X: MPC@4 of less than 5 μg/mL; Y: MPC@4 of 5 μg/mL to 20 μg/mL; Z: MPC@4 of greater than 20 μg/mL)
  AZT MPC4 SHV-18 KP1012: X (key: X: MPC@4 of less than 5 μg/mL; Y: MPC@4 of 5 μg/mL to 20 μg/mL; Z: MPC@4 of greater than 20 μg/mL)
  AZT MPC4 TEM-10 EC1009: Y (key: X: MPC@4 of less than 5 μg/mL; Y: MPC@4 of 5 μg/mL to 20 μg/mL; Z: MPC@4 of greater than 20 μg/mL)
  AZT MPC4 TEM-10 ec302: Y (key: X: MPC@4 of less than 5 μg/mL; Y: MPC@4 of 5 μg/mL to 20 μg/mL; Z: MPC@4 of greater than 20 μg/mL)
  AZT MPC4 TEM-26 ec304: X (key: X: MPC@4 of less than 5 μg/mL; Y: MPC@4 of 5 μg/mL to 20 μg/mL; Z: MPC@4 of greater than 20 μg/mL)
[2]
  AZT MPC@4 CMY-6 EC1010: Z (key: X: MPC@4 of less than 5 μg/mL; Y: MPC@4 of 5 μg/mL to 20 μg/mL; Z: MPC@4 of greater than 20 μg/mL)
  AZT MPC@4 ECL1002: Y (key: X: MPC@4 of less than 5 μg/mL; Y: MPC@4 of 5 μg/mL to 20 μg/mL; Z: MPC@4 of greater than 20 μg/mL)
  AZT MPC@4 OXA-2, KPX1001: Y (key: X: MPC@4 of less than 5 μg/mL; Y: MPC@4 of 5 μg/mL to 20 μg/mL; Z: MPC@4 of greater than 20 μg/mL)
  AZT MPC@4 OXA-10, qnrB4 KP1007: X (key: X: MPC@4 of less than 5 μg/mL; Y: MPC@4 of 5 μg/mL to 20 μg/mL; Z: MPC@4 of greater than 20 μg/mL)
  AZT MPC@4 PAM2035: Y (key: X: MPC@4 of less than 5 μg/mL; Y: MPC@4 of 5 μg/mL to 20 μg/mL; Z: MPC@4 of greater than 20 μg/mL)
